PubChem BioAssay AID504793 – Drosophila RNAi Screening Center, 2011
Test: 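Genes required for cells to halt at G2/M after double-strand DNA breaks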 (primary screen). Cells: Drosophila S2R+ cells. Reagent: long dsRNA against Drosophila genes, about 0.25 µg dsRNA per well. Timing: 4 days of dsRNA, then 4 hours of drug before read-out. Challenge: doxorubicin 0.5 µM for 4 hours to cause double-strand breaks, in cells also given a low, harmless dose of dsRNA against nbs to sensitise the assay. Measurement: 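Mitotic index as the number of phospho-histone H3-positive cells in each well following doxorubicin, given as raw counts without normalisation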. Direction: mitotic cells: higher = more cells in mitosis, weaker G2 arrest. Call rule: 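a call needs confirmation in secondary tests, with other dsRNAs and a check of mitotic timing without damage, not just a high primary count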. Meaning of the calls: active = confirmed in follow-up tests; inactive = not confirmed.
The deposit covers about 23,000 reagents; below is a random part of those with a known target gene and a result. In the full data, 62 (0.27%) are marked active. 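Calls come from follow-up tests whose scores are not deposited, so confirmed genes may have low counts here; counts are not normalised per plate.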 The raw values are shown without normalisation. The numbers tell different reagents against one gene apart.

gene | dsRNA no. | mitotic cells, replicate 1 | mitotic cells, replicate 2 | outcome
PIG-H (Phosphatidylinositol glycan anchor biosynthesis class H) | 1 | 8 | – | inactive
CG6071 | 1 | 8 | – | inactive
CG8229 | 1 | 2 | – | inactive
CG8229 | 2 | 5 | – | inactive
CG7377 | 1 | 6 | – | inactive
Uck (Uridine-cytidine kinase) | 1 | 12 | – | inactive
Sb (Stubble) | 1 | 5 | – | inactive
Sb (Stubble) | 2 | 4 | – | inactive
E2f2 (E2F transcription factor 2) | 1 | 5 | – | inactive
Stat92E | 1 | 9 | – | inactive
Stat92E | 2 | 11 | – | inactive
CG14107 | 1 | 5 | – | inactive
CG14107 | 2 | 5 | – | inactive
CG10116 | 1 | 2 | – | inactive
mam (mastermind) | 1 | 5 | – | inactive
mam (mastermind) | 2 | 17 | – | inactive
mam (mastermind) | 3 | 15 | – | inactive
CG17266 | 1 | 5 | – | inactive
CG17266 | 2 | 8 | – | inactive
CG17266 | 3 | 6 | – | inactive
CG3038 | 1 | 13 | – | inactive
CG17242 | 1 | 4 | – | inactive
CG31465 | 1 | 4 | – | inactive
CG31465 | 2 | 6 | – | inactive
Muc68E (Mucin 68E) | 1 | 25 | 14 | inactive
Muc68E (Mucin 68E) | 2 | 13 | – | inactive
CG10616 | 1 | 5 | – | inactive
Tep3 (Thioester-containing protein 3) | 1 | 4 | – | inactive
Nct (Nicastrin) | 1 | 9 | – | inactive
CG33181 | 1 | 10 | – | inactive
CG33181 | 2 | 5 | – | inactive
CG33181 | 3 | 9 | – | inactive
msn (misshapen) | 1 | 3 | – | inactive
msn (misshapen) | 2 | 7 | – | inactive
msn (misshapen) | 3 | 8 | – | inactive
lncRNA:roX2 (long non-coding RNA on the X 2) | 1 | 7 | – | inactive
lncRNA:roX2 (long non-coding RNA on the X 2) | 2 | 5 | – | inactive
edl (ETS-domain lacking) | 1 | 8 | – | inactive
edl (ETS-domain lacking) | 2 | 4 | – | inactive
Muc11A (Mucin 11A) | 1 | 6 | – | inactive
Muc11A (Mucin 11A) | 2 | 1 | – | inactive
CG9356 | 1 | 6 | – | inactive
Pgam5 (Phosphoglycerate mutase 5) | 1 | 8 | – | inactive
Vps13D (Vacuolar protein sorting 13D) | 1 | 2 | – | inactive
Vps13D (Vacuolar protein sorting 13D) | 2 | 2 | – | inactive
CG34357 | 1 | 6 | – | inactive
CG34357 | 2 | 3 | – | inactive
CG34357 | 3 | 7 | – | inactive
CG34357 | 4 | 4 | – | inactive
CG34357 | 5 | 13 | – | inactive
IFT46 (Intraflagellar transport 46) | 1 | 2 | – | inactive
CG34404 | 1 | 11 | – | inactive
CG34404 | 2 | 3 | – | inactive
CG34404 | 3 | 8 | – | inactive
Mgat4b | 1 | 6 | – | inactive
Mgat4b | 2 | 10 | – | inactive
O-fut2 (O-fucosyltransferase 2) | 1 | 11 | – | inactive
or (orange) | 1 | 6 | – | inactive
or (orange) | 2 | 5 | – | inactive
Liprin-alpha | 1 | 8 | – | inactive
Liprin-alpha | 2 | 3 | – | inactive
CG5157 | 1 | 10 | – | inactive
CG5157 | 2 | 7 | – | inactive
Marcal1 | 1 | 4 | – | inactive
Cdk7 (Cyclin-dependent kinase 7) | 1 | 10 | – | inactive
Cdk7 (Cyclin-dependent kinase 7) | 2 | 8 | – | inactive
Lcp3 (Larval cuticle protein 3) | 1 | 5 | – | inactive
Lcp3 (Larval cuticle protein 3) | 2 | 3 | – | inactive
UQCR-14L (Ubiquinol-cytochrome c reductase 14 kDa subunit-like) | 1 | 8 | – | inactive
UQCR-14L (Ubiquinol-cytochrome c reductase 14 kDa subunit-like) | 2 | 5 | – | inactive
UQCR-14L (Ubiquinol-cytochrome c reductase 14 kDa subunit-like) | 3 | 7 | – | inactive
Vps24 (Vacuolar protein sorting 24) | 1 | 7 | 8 | inactive
Vps24 (Vacuolar protein sorting 24) | 2 | 6 | – | inactive
CG15141 | 1 | 4 | – | inactive
CG15141 | 2 | 6 | – | inactive
CG15141 | 3 | 7 | – | inactive
Tsp2A (Tetraspanin 2A) | 1 | 14 | – | inactive
CG15546 | 1 | 23 | – | inactive
CG15546 | 2 | 24 | – | inactive
CG15546 | 3 | 6 | – | inactive
Trf2 (TATA box binding protein-related factor 2) | 1 | 3 | – | inactive
Trf2 (TATA box binding protein-related factor 2) | 2 | 10 | – | inactive
CG34426 | 1 | 3 | – | inactive
CROT (Carnitine O-octanoyltransferase) | 1 | 2 | – | inactive
CROT (Carnitine O-octanoyltransferase) | 2 | 5 | – | inactive
CROT (Carnitine O-octanoyltransferase) | 3 | 6 | – | inactive
CG6429 | 1 | 8 | – | inactive
CG17742 (retired record) | 1 | 4 | – | inactive
CG6325 | 1 | 9 | – | inactive
CG15125 | 1 | 11 | – | inactive

Continued, starting with the last 6 of the part before.
gene | dsRNA no. | mitotic cells, replicate 1 | mitotic cells, replicate 2 | outcome
CROT (Carnitine O-octanoyltransferase) | 2 | 5 | – | inactive
CROT (Carnitine O-octanoyltransferase) | 3 | 6 | – | inactive
CG6429 | 1 | 8 | – | inactive
CG17742 (retired record) | 1 | 4 | – | inactive
CG6325 | 1 | 9 | – | inactive
CG15125 | 1 | 11 | – | inactive
Sid (Stress induced DNase) | 1 | 6 | – | inactive
Sid (Stress induced DNase) | 2 | 4 | – | inactive
CG8034 | 1 | 4 | – | inactive
CG8034 | 2 | 5 | – | inactive
SLC22A (SLC22A family member) | 1 | 6 | – | inactive
SLC22A (SLC22A family member) | 2 | 6 | – | inactive
mute (muscle wasted) | 1 | 7 | – | inactive
mute (muscle wasted) | 2 | 16 | – | inactive
mute (muscle wasted) | 3 | 15 | – | inactive
CG3198 | 1 | 11 | – | inactive
CG3198 | 2 | 8 | – | inactive
CG30099 | 1 | 9 | – | inactive
CG30099 | 2 | 5 | – | inactive
Lcp65Ac | 1 | 3 | – | inactive
Lcp65Ac | 2 | 3 | – | inactive
aurA (aurora A) | 1 | 8 | – | inactive
aurA (aurora A) | 2 | 6 | – | inactive
CG13786 | 1 | 3 | – | inactive
CG13786 | 2 | 4 | – | inactive
CG8420 | 1 | 3 | – | inactive
Gagr (Gag-related) | 1 | 9 | – | inactive
Tob (Transducer of ERBB2) | 1 | 9 | – | inactive
CG18814 | 1 | 2 | – | inactive
Grx1 (Glutaredoxin 1) | 1 | 5 | – | inactive
CG9346 | 1 | 11 | – | inactive
CG7631 | 1 | 10 | – | inactive
CG10737 | 1 | 11 | – | inactive
CG10737 | 2 | 9 | – | inactive
CG9302 | 1 | 6 | – | inactive
CG18428 | 1 | 11 | – | inactive
CG18428 | 2 | – | – | inactive
Drsl3 (Drosomycin-like 3) | 1 | 14 | – | inactive
Drsl3 (Drosomycin-like 3) | 2 | 1 | – | inactive
eIF3l (eukaryotic translation initiation factor 3 subunit l) | 1 | 4 | – | inactive
eIF3l (eukaryotic translation initiation factor 3 subunit l) | 2 | 3 | – | inactive
woc (without children) | 1 | 7 | – | inactive
CG15213 | 1 | 6 | – | inactive
CG11911 | 1 | 5 | – | inactive
CG11911 | 2 | 7 | – | inactive
CR30029 (pseudo) | 1 | 9 | – | inactive
CG33325 | 1 | 10 | – | inactive
CG7394 | 1 | 3 | – | inactive
Tep1 (Thioester-containing protein 1) | 1 | 6 | – | inactive
Tep1 (Thioester-containing protein 1) | 2 | 6 | – | inactive
CG1910 | 1 | 6 | – | inactive
CG1910 | 2 | 14 | – | inactive
CG11808 | 1 | 7 | – | inactive
CG11808 | 2 | 6 | – | inactive
CG33998 | 1 | 12 | – | inactive
CG10543 | 1 | 10 | – | inactive
